According to patent publication US8785399B2, “Antibacterial peptides” (Spiderbiotech S.R.A., priority 2008, dated 2014):
At least one peptide structure holds a part that was inferred or is arguable (an end, a ring closure or a residue). Positions of bridges follow the written chain, without caps; N, C: chain ends. Non-standard residues stand in square brackets, D forms with d. Residues, ends and D or L forms follow the SMILES beside them. Chains are numbered I, II in the order given. Aoc = NCCCCCCCC(=O)O

System: E. coli EC47
Experiment: In vivo efficacy in a septicaemia model in mice
Conditions: 3 mg/kg intravenously at 15 min and 6 h post-infection; mice infected i.p. with 7.5×10^2 CFU E. coli EC47

CC[C@H](C)[C@H](NC(=O)[C@H](CCCCN)NC(=O)[C@H](CCCCN)NC(=O)[C@@H](N)Cc1c[nH]c2ccccc12)C(=O)N[C@@H](CCCNC(=N)N)C(=O)N[C@H](C(=O)N[C@@H](CCCNC(=N)N)C(=O)N[C@@H](CC(C)C)C(=O)N[C@@H](CO)C(=O)N[C@@H](C)C(=O)NCCCC[C@H](NC(=O)[C@H](C)NC(=O)[C@H](CO)NC(=O)[C@H](CC(C)C)NC(=O)[C@H](CCCNC(=N)N)NC(=O)[C@@H](NC(=O)[C@H](CCCNC(=N)N)NC(=O)[C@@H](NC(=O)[C@H](CCCCN)NC(=O)[C@H](CCCCN)NC(=O)[C@@H](N)Cc1c[nH]c2ccccc12)[C@@H](C)CC)C(C)C)C(=O)NCCCCCCCC(N)=O)C(C)C [ID24, (H-W-KKIRVRLSA)2-Lys-8-Aoa-NH2] (I: H-WKKIRVRLSAK[Aoc]-NH2 / II: H-WKKIRVRLSA; amide I:11-II:C)
protection of mice from infection (survival): afford protection of mice from infection
